# From paper doi:10.1101/448084
# By UniProt entry, the sequences of proteins in these tests, tags left out. Where a name states a change or a piece, a line headed by the entry shows the natural chain unless it says otherwise.
# UniProt Q0WNJ6: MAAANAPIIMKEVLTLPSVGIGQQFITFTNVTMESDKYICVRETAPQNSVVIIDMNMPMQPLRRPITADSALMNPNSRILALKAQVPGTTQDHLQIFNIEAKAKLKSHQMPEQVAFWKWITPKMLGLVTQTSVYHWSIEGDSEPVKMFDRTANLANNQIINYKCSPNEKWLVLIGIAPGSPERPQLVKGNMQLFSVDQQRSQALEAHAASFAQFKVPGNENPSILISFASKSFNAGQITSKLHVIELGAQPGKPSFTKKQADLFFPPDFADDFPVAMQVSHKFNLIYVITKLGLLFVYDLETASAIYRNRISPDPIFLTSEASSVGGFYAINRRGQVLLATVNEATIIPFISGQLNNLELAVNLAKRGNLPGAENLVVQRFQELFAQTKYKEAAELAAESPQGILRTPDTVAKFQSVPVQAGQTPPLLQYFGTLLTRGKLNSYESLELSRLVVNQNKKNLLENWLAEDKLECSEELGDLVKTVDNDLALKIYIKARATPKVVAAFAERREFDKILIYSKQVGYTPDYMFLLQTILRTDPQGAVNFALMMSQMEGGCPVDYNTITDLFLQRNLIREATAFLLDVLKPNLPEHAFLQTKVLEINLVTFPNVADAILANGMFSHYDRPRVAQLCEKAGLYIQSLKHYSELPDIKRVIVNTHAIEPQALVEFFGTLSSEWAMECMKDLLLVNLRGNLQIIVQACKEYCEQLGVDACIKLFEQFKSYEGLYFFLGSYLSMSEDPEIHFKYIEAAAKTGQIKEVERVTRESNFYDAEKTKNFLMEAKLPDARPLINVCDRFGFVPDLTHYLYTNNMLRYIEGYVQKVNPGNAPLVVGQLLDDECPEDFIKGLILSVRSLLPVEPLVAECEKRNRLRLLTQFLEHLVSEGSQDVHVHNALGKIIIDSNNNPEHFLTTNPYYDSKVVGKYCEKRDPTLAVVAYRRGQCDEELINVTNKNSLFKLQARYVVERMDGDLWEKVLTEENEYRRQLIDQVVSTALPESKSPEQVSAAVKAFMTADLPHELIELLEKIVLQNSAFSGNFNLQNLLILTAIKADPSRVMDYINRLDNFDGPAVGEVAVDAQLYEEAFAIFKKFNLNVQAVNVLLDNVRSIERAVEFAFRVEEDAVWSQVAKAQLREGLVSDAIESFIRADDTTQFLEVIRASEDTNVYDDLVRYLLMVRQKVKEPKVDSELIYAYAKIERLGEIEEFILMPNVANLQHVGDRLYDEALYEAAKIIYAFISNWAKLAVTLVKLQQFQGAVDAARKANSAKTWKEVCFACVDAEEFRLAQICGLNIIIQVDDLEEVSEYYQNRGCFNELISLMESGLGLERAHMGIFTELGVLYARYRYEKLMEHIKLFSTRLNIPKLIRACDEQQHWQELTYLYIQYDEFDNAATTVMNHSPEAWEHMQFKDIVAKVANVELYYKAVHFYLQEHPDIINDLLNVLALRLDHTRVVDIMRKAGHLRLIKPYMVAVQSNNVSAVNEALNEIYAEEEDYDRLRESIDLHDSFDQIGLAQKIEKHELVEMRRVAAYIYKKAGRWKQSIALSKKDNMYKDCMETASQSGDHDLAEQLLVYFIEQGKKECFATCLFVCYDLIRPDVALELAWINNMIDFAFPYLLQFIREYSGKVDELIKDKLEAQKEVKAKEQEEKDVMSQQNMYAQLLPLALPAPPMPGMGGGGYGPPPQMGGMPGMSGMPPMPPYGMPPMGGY
# Target: T1, STRUBBELIG (SUB) fused to EGFP (SUB:EGFP), expressed from pUBQ::SUB:EGFP (Arabidopsis thaliana) (UniProt Q8RWZ1)
# T1 sequence: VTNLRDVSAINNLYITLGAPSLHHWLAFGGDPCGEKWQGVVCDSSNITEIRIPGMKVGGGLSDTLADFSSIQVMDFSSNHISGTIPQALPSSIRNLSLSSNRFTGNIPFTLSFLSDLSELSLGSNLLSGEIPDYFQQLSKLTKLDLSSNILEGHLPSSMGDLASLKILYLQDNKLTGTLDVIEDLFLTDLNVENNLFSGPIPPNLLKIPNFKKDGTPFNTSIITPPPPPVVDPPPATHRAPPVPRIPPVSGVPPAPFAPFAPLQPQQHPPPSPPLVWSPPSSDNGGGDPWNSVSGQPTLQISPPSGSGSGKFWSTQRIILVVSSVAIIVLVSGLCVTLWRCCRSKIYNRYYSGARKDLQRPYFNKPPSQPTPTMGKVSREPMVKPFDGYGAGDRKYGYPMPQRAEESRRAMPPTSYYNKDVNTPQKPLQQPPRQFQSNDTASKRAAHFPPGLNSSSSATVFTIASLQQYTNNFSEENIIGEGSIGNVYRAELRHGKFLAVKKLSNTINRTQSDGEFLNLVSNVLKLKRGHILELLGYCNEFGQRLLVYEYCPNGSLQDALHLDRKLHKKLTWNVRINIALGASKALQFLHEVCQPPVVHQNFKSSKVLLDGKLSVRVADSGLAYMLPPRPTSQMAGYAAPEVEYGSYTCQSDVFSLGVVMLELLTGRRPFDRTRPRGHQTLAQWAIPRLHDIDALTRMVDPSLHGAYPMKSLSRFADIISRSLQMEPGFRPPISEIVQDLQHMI
# Assay: co-IP
substance,measurement,value
"clathrin heavy chain (CHC), endogenous (from UniProt Q0WNJ6)",binding,binds

# These are yes or no findings as the source states them, for the method shown. In cells and extracts the contact can be indirect. A result given as binding can be weak or reduced; the word gives no strength. Where a sequence is shown, tags or fusion partners need not be part of it.
